Source: the supplement of paper PMC10849652
The list shows a part of the results.

By UniProt entry, the sequences of proteins in these tests, tags left out. Where a name states a change or a piece, a line headed by the entry shows the natural chain unless it says otherwise.
UniProt Q9Y5P8: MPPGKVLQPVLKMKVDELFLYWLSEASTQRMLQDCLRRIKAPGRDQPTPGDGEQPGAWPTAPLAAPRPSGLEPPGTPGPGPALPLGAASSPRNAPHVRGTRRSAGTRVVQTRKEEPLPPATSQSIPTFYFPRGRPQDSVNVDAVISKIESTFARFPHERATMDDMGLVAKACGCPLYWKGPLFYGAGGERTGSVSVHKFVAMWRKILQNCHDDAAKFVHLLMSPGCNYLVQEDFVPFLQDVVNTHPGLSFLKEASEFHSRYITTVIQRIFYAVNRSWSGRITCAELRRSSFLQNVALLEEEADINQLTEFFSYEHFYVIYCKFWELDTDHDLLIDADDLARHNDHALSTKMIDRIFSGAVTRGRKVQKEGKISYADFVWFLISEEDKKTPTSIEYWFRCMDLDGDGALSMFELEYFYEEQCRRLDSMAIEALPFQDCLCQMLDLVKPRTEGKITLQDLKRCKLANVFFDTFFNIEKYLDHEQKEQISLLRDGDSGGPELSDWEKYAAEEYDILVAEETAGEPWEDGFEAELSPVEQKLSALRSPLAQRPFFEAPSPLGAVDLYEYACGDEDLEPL
UniProt Q9H7J1: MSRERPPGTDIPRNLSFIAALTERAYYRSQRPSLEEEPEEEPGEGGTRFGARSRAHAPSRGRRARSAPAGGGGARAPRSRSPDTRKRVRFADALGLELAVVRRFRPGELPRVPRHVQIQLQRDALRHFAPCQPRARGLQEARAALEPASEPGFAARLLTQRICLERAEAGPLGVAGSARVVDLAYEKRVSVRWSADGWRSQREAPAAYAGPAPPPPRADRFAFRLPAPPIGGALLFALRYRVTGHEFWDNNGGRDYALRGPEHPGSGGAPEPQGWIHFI
UniProt Q66LE6: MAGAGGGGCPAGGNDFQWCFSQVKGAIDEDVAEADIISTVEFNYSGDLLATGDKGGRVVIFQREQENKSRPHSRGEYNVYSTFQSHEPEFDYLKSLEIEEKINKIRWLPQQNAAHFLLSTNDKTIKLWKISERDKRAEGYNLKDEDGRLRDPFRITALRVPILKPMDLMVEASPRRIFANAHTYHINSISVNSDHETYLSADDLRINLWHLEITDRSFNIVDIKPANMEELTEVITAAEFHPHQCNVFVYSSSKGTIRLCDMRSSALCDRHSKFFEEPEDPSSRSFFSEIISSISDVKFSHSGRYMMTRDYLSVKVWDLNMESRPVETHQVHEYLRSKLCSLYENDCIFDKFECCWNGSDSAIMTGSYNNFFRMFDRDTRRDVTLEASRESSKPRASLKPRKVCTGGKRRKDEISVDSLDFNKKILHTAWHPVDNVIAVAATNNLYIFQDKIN
UniProt O43900: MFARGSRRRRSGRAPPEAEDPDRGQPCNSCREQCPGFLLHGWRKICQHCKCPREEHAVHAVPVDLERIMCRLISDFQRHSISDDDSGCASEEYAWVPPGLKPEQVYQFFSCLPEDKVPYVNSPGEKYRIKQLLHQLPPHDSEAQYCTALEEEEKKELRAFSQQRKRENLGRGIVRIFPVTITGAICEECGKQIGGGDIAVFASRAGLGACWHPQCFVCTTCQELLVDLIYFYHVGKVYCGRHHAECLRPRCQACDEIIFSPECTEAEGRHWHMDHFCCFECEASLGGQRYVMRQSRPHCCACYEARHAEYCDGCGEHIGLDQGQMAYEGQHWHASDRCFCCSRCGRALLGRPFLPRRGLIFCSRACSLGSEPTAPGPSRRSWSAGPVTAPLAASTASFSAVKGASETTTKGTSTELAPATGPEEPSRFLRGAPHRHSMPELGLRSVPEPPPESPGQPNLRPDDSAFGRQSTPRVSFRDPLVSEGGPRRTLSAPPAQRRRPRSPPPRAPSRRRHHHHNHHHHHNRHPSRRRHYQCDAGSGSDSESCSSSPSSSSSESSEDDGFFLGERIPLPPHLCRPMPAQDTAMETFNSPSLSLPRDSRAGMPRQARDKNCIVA
UniProt Q96LW4: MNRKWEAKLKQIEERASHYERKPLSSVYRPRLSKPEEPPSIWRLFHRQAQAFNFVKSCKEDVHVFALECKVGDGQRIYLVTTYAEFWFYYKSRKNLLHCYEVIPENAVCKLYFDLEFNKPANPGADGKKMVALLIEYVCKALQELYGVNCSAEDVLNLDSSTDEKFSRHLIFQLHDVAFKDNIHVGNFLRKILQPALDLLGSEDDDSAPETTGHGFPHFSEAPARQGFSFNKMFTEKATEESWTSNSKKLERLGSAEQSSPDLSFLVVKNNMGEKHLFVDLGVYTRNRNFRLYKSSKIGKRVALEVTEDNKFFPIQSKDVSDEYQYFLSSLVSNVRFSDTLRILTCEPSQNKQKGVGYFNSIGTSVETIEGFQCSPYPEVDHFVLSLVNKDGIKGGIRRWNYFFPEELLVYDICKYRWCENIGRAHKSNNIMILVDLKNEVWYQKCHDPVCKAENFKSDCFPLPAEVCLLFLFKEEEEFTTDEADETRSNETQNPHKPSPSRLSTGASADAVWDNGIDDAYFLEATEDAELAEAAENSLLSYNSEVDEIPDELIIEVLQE
UniProt P57071, whole entry, looked up: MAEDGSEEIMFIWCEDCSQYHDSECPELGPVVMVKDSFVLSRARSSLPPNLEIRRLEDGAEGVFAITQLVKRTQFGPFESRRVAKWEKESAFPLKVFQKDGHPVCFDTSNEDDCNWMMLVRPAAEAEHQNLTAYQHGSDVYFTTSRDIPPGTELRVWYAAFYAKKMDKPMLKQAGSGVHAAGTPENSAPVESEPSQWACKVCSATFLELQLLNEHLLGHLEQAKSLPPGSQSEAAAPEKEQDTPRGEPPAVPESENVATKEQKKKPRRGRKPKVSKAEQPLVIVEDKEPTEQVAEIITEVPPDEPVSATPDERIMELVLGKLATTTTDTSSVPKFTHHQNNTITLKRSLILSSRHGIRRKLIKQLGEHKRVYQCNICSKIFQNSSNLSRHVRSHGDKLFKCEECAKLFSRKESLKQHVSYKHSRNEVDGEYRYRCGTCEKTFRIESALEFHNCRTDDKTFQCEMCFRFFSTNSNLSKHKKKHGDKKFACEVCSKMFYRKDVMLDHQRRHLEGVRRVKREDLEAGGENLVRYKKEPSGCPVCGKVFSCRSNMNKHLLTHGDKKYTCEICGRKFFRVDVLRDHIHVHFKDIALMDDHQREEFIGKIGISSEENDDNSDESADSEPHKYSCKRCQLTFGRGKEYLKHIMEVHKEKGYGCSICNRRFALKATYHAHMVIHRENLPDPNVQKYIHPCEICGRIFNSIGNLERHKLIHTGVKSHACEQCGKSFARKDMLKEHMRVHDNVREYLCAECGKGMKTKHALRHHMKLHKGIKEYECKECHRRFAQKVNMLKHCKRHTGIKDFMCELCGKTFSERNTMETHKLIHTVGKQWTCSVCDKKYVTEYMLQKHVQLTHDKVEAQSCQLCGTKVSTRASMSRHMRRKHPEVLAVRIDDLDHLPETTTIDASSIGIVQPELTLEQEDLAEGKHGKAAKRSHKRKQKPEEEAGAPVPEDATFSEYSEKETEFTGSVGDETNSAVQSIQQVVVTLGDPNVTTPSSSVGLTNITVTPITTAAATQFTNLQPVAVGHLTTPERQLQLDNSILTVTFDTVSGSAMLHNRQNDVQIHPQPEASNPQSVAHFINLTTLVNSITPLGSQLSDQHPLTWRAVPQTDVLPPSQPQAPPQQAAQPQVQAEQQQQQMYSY
UniProt P13727: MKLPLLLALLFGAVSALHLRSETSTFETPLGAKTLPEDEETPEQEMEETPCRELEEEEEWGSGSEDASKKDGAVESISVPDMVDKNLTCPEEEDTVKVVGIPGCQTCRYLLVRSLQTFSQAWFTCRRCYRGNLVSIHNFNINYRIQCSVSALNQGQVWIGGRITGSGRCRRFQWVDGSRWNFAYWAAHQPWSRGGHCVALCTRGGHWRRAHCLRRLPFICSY

Legend:
Assay in all cases: log2 fold change, soluble protein after heating vs DMSO (PISA); higher = thermal stabilisation; K562 lysate, 10 uM; active = over 0.2 and 3.5 SD of the protein, either way, in both replicates (recomputed)
[1] = compound: CCCS(=O)(=O)Nc1ccc(F)c(C(=O)c2c[nH]c3ncc(Cl)cc23)c1F
How it was run: (§1)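 Dounce homogenisation of K562 pellets in PBS pH 7.4 with 1 mM MgCl2 produced a crude extract, used at 1 mg/mL protein. Exposure to 10 μM compound lasted 30 min, and aliquots were then heated for 3 min across 48°C-58°C, pooled and brought to 0.5% NP-40 at 4°C. The supernatant after 21,000xg for 90 min was quantified by TMTpro 16plex LC-MS/MS with channel sums equalised. Duplicate values are given as log-two fold change in thermal stability relative to solvent controls.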

[2] = compound: CCN(CCCOc1ccc2c(Nc3cc(CC(=O)Nc4cccc(F)c4)[nH]n3)ncnc2c1)CCOP(=O)(O)O [barasertib]
How it was run: as §1

[3] = compound: CC[C@@H]1C(=O)N(C)c2cnc(Nc3ccc(C(=O)N[C@H]4CC[C@H](N5CCN(CC6CC6)CC5)CC4)cc3OC)nc2N1C(C)C [volasertib]
How it was run: as §1

[4] = compound: CCn1cc(-c2ccnc3[nH]c(-c4cccc(CN(C)C)c4)cc23)c(-c2ccc(NC(=O)N(C)C)cc2)n1
How it was run: as §1

[5] = compound: CN1CCC(CNc2ccc3ncc(-c4cccc(OC(F)(F)F)c4)n3n2)CC1
How it was run: as §1

[6] = compound: CN1CCN(c2nc(C3=C(c4c[nH]c5ccccc45)C(=O)NC3=O)c3ccccc3n2)CC1 [sotrastaurin]
How it was run: as §1

[7] = compound: CCCS(=O)(=O)Nc1ccc(F)c(C(=O)c2c[nH]c3ncc(-c4ccc(Cl)cc4)cc23)c1F [vemurafenib]
How it was run: as §1

[8] = compound: CCn1c(C(=O)N(C2CC2)C2CC2)cc2c3c(ncn3C)c(Nc3cc(C)n(C)n3)nc21
How it was run: as §1

[9] = compound: CN1CCN(CCOc2cc(OC3CCOCC3)c3c(Nc4c(Cl)ccc5c4OCO5)ncnc3c2)CC1 [saracatinib]
How it was run: as §1

[10] = compound: CC[C@@H]1C(=O)N(C)c2cnc(Nc3ccc(C(=O)NC4CCN(C)CC4)cc3OC)nc2N1C1CCCC1
How it was run: as §1

Measured: log2 fold change

PPP2R3B (UniProt Q9Y5P8)
inactive: [1] 0.007 | [2] 0.124 | [3] -0.02 | [4] 0.04 | [5] 0.065 | [6] 0.005

PPP1R3E (UniProt Q9H7J1)
inactive: [4] -0.089 | [5] 0.186

PPP2R2D (UniProt Q66LE6)
inactive: [7] -0.132 | [1] 0.022 | [2] 0.054 | [3] 0.018 | [8] 0.019 | [4] -0.116 | [5] 0.104 | [9] -0.009 | [6] 0.047

PRG4 (UniProt Q92954)
inactive: [1] -0.038 | [2] 0.332 | [3] 0.054 | [8] -0.03 | [4] -0.179 | [5] 0.229 | [9] 0.009 | [6] -0.02

PRICKLE3 (UniProt O43900)
inactive: [2] -0.079 | [8] -0.086

PRIMPOL (UniProt Q96LW4)
inactive: [7] -0.02 | [2] -0.083 | [10] -0.095 | [8] 0.011 | [9] 0.014 | [6] 0.089

PRDM15 (UniProt P57071)
inactive: [8] 0.227 | [9] -0.324

PRG2 (UniProt P13727)
inactive: [1] 0.006 | [10] 0.052 | [3] -0.101 | [9] 0.141 | [6] -0.049
